Test results reported in the supplement of paper PMC12067093, “Discovery and optimisation of a covalent ligand for TRIM25 and its application to targeted protein ubiquitination” (Chemical Science, 2025).
Some of the results follow.

compound: CC1Cc2ccccc2N1C(=O)C1CCCN(C1)C(=O)CCl (mixture of isomers) [TRIM25 ligand 11 (diastereomer mixture)]; assay: probe-labelled cysteine peptide fold change vs DMSO (competition) (log2 fold change); higher = less target engagement (more negative = stronger competition); conditions: 10 µM; THP-1; incubation time: 4 h
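Further: competitive chemoproteomic profiling in live THP-1 cells with an iodoacetamide desthiobiotin (IA-DTB) probe, comparing probe-labelled peptide intensities in compound-treated cells against DMSO-treated controls.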

| Target | probe-labelled cysteine peptide fold change |
| --- | --- |
| IL18_Q14116_10_AAEPVEDNCINFVAMK (UniProt Q14116) | 0.318 |
| IMPDH2_P12268_173_DIDFLKEEEHDCFLEEIMTK (UniProt P12268) | -0.147 |
| IGFBP4_P22692_249_GELDCHQLADSFRE (UniProt P22692) | -0.0513 |
| IL1RAP_Q9NPH3_47_CPLFEHFLK (UniProt Q9NPH3) | 0.135 |
| IGF2R_P11717_1927_LWCSTTADYDRDHEWGFCR (UniProt P11717) | -0.00851 |
| IGF2R_P11717_420_YSDGDLTLIYFGGDECSSGFQR (UniProt P11717) | 0.136 |
| IGF2R_P11717_1957_CDEDEDIGRPQVFSEVR (UniProt P11717) | 0.0901 |
| INF2_Q27J81_1029_CPASEPGLDATTASESR (UniProt Q27J81) | -0.107 |
| IGF2R_P11717_572_GNIQLSYSDGDDCGHGK (UniProt P11717) | 0.0683 |
| IFT27_Q9BW83_149_AWALGQGLECFETSVK (UniProt Q9BW83) | -0.00671 |
| IFT122_Q9HBG6_519_CLDMSASR (UniProt Q9HBG6) | 0.064 |
| IMPACT_Q9P2X3_195_STFQAHLAPVVCPK (UniProt Q9P2X3) | -0.0535 |
| IDH3A_P50213_351_CSDFTEEICR (UniProt P50213) | -0.00891 |
| IGF2R_P11717_823_KYYINVCRPLNPVPGCNR (UniProt P11717) | -0.0433 |
| IMPACT_Q9P2X3_284_HINNCAR (UniProt Q9P2X3) | -0.0325 |
| IGF2R_P11717_1349_ETSDCSYLFEWR (UniProt P11717) | 0.0257 |
| ILKAP_Q9H0C8_135_KGEREEMQDAHVILNDITEECRPPSSLITR (UniProt Q9H0C8) | -0.145 |
| INPP5A_Q14642_53_PHFMALHCQEFGGK (UniProt Q14642) | 0.0159 |
| IGF2R_P11717_1476_FTCSESQVNSR (UniProt P11717) | 0.13 |
| IGF2R_P11717_275_LDFCDGHSPAVTITFVCPSER (UniProt P11717) | 0.0215 |

| Target | probe-labelled cysteine peptide fold change |
| --- | --- |
| HTT_P42858_202_CRPYLVNLLPCLTR (UniProt P42858) | -0.0475 |
| HYI_Q5T013_102_ALGCPR (UniProt Q5T013) | -0.048 |
| IGF2BP2_Q9Y6M1_255_ENSGAAEKPVTIHATPEGTSEACR (UniProt Q9Y6M1) | -0.0717 |
| IMPDH1_P20839_215_LPIVNDCDELVAIIAR (UniProt P20839) | -0.0181 |
| IDNK_Q5T6J7_83_VVLACSALK (UniProt Q5T6J7) | 0.0519 |
| IARS2_Q9NSE4_1002_YTAESSDTLCPR (UniProt Q9NSE4) | 0.0593 |
| IFT81_Q8WYA0_557_LREECLQEESR (UniProt Q8WYA0) | -0.0228 |
| IARS2_Q9NSE4_521_RPYWCISR (UniProt Q9NSE4) | -0.0354 |
| ILK_Q13418_422_VALEGLRPTIPPGISPHVCK (UniProt Q13418) | -0.0497 |
| INF2_Q27J81_971_KGPGKQEEVCVIDALLADIRK (UniProt Q27J81) | -0.359 |
| IGF2R_P11717_228_ACPPGTAACLVR (UniProt P11717) | 0.000279 |
| IARS2_Q9NSE4_883_KPGLEEAVESACAMR (UniProt Q9NSE4) | 0.0328 |
| IDH3A_P50213_127_TFDLYANVRPCVSIEGYK (UniProt P50213) | 0.0495 |
| ILVBL_A1L0T0_354_KADVIVLAGTVCDFR (UniProt A1L0T0) | -0.0406 |
| IFT27_Q9BW83_8_CILAGDPAVGK (UniProt Q9BW83) | -0.095 |
| IDH2_P48735_154_EPIICK (UniProt P48735) | 0.0361 |
| IGF2R_P11717_572_GNIQLSYSDGDDCGHGKK (UniProt P11717) | -0.121 |
| HUS1_O60921_253_ALCNIVNNK (UniProt O60921) | -0.137 |
| IGF2R_P11717_134_VQSSIAFLCGK (UniProt P11717) | -0.36 |
| IMPA1_P29218_24_QAGEVVCEAIK (UniProt P29218) | -0.0409 |

same assay, conditions: 50 µM; THP-1; incubation time: 4 h

| Target | probe-labelled cysteine peptide fold change |
| --- | --- |
| IL18_Q14116_10_AAEPVEDNCINFVAMK (UniProt Q14116) | 0.296 |
| IMPDH2_P12268_173_DIDFLKEEEHDCFLEEIMTK (UniProt P12268) | -0.0901 |
| IGFBP4_P22692_249_GELDCHQLADSFRE (UniProt P22692) | -0.197 |
| IL1RAP_Q9NPH3_47_CPLFEHFLK (UniProt Q9NPH3) | 0.196 |
| IGF2R_P11717_1927_LWCSTTADYDRDHEWGFCR (UniProt P11717) | -0.173 |
| IGF2R_P11717_420_YSDGDLTLIYFGGDECSSGFQR (UniProt P11717) | -0.246 |
| IGF2R_P11717_1957_CDEDEDIGRPQVFSEVR (UniProt P11717) | 0.193 |
| INF2_Q27J81_1029_CPASEPGLDATTASESR (UniProt Q27J81) | -0.146 |
| IGF2R_P11717_572_GNIQLSYSDGDDCGHGK (UniProt P11717) | -0.0345 |
| IFT27_Q9BW83_149_AWALGQGLECFETSVK (UniProt Q9BW83) | 0.0476 |
| IFT122_Q9HBG6_519_CLDMSASR (UniProt Q9HBG6) | 0.0958 |
| IMPACT_Q9P2X3_195_STFQAHLAPVVCPK (UniProt Q9P2X3) | -0.381 |
| IDH3A_P50213_351_CSDFTEEICR (UniProt P50213) | -0.107 |
| IGF2R_P11717_823_KYYINVCRPLNPVPGCNR (UniProt P11717) | 0.000829 |
| IMPACT_Q9P2X3_284_HINNCAR (UniProt Q9P2X3) | -0.492 |
| IGF2R_P11717_1349_ETSDCSYLFEWR (UniProt P11717) | 0.123 |
| ILKAP_Q9H0C8_135_KGEREEMQDAHVILNDITEECRPPSSLITR (UniProt Q9H0C8) | -0.111 |
| INPP5A_Q14642_53_PHFMALHCQEFGGK (UniProt Q14642) | 0.232 |
| IGF2R_P11717_1476_FTCSESQVNSR (UniProt P11717) | 0.0844 |
| IGF2R_P11717_275_LDFCDGHSPAVTITFVCPSER (UniProt P11717) | 0.173 |

| Target | probe-labelled cysteine peptide fold change |
| --- | --- |
| HTT_P42858_202_CRPYLVNLLPCLTR (UniProt P42858) | -0.0186 |
| HYI_Q5T013_102_ALGCPR (UniProt Q5T013) | 0.0102 |
| IGF2BP2_Q9Y6M1_255_ENSGAAEKPVTIHATPEGTSEACR (UniProt Q9Y6M1) | -0.178 |
| IMPDH1_P20839_215_LPIVNDCDELVAIIAR (UniProt P20839) | 0.0351 |
| IDNK_Q5T6J7_83_VVLACSALK (UniProt Q5T6J7) | 0.189 |
| IARS2_Q9NSE4_1002_YTAESSDTLCPR (UniProt Q9NSE4) | 0.0556 |
| IFT81_Q8WYA0_557_LREECLQEESR (UniProt Q8WYA0) | 0.0267 |
| IARS2_Q9NSE4_521_RPYWCISR (UniProt Q9NSE4) | 0.196 |
| ILK_Q13418_422_VALEGLRPTIPPGISPHVCK (UniProt Q13418) | -0.0569 |
| INF2_Q27J81_971_KGPGKQEEVCVIDALLADIRK (UniProt Q27J81) | -0.314 |
| IGF2R_P11717_228_ACPPGTAACLVR (UniProt P11717) | -0.0041 |
| IARS2_Q9NSE4_883_KPGLEEAVESACAMR (UniProt Q9NSE4) | 0.0447 |
| IDH3A_P50213_127_TFDLYANVRPCVSIEGYK (UniProt P50213) | -0.141 |
| ILVBL_A1L0T0_354_KADVIVLAGTVCDFR (UniProt A1L0T0) | 0.133 |
| IFT27_Q9BW83_8_CILAGDPAVGK (UniProt Q9BW83) | -0.133 |
| IDH2_P48735_154_EPIICK (UniProt P48735) | 0.0504 |
| IGF2R_P11717_572_GNIQLSYSDGDDCGHGKK (UniProt P11717) | -0.178 |
| HUS1_O60921_253_ALCNIVNNK (UniProt O60921) | 0.058 |
| IGF2R_P11717_134_VQSSIAFLCGK (UniProt P11717) | -0.452 |
| IMPA1_P29218_24_QAGEVVCEAIK (UniProt P29218) | 0.00892 |
